# For at least one compound, name, drawing or mass did not settle the structure.
# Test system: mouse photo-aging model
# Assay: skin surface morphology in the mouse photo-aging model (scanning electron microphotographs)
# Type: in vivo, hairless mice (Skh: HR-1)
# Details: 0.05% solution in ethanol, once a day for 8 weeks
structure (smiles),measurement,value
C[C@@H]1C[C@H]2[C@@H]3CCC4=CC(=O)C=C[C@]4(C)[C@@]3(F)[C@@H](O)C[C@]2(C)[C@@]1(O)C(=O)CO [dexamethasone],skin surface morphology as compared with the ethanol-applied mice,excellent amelioration of skin conditions

# Source: patent publication US6340677B1, “Method of evaluation of skin conditioning-ameliorating agents and method of producing compositions for topical application to skin” (Pola Chemical Industries, Inc., priority 1997, dated 2002)
